We go through one substance from paper PMC8653610.

Protein sequences, listed by entry. Tags and fused reporters are not part of them. Lines headed by an entry give the natural chain unless they say otherwise; changes in a name come on top.
UniProt P67809: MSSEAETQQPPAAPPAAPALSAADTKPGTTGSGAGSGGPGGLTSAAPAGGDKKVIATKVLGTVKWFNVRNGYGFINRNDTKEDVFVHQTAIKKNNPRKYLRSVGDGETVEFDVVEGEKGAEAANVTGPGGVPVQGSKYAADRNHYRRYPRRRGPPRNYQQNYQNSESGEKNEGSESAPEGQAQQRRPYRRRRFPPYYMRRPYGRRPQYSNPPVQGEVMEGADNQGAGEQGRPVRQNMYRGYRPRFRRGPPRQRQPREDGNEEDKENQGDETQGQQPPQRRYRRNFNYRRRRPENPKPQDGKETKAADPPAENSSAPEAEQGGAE
UniProt Q09472: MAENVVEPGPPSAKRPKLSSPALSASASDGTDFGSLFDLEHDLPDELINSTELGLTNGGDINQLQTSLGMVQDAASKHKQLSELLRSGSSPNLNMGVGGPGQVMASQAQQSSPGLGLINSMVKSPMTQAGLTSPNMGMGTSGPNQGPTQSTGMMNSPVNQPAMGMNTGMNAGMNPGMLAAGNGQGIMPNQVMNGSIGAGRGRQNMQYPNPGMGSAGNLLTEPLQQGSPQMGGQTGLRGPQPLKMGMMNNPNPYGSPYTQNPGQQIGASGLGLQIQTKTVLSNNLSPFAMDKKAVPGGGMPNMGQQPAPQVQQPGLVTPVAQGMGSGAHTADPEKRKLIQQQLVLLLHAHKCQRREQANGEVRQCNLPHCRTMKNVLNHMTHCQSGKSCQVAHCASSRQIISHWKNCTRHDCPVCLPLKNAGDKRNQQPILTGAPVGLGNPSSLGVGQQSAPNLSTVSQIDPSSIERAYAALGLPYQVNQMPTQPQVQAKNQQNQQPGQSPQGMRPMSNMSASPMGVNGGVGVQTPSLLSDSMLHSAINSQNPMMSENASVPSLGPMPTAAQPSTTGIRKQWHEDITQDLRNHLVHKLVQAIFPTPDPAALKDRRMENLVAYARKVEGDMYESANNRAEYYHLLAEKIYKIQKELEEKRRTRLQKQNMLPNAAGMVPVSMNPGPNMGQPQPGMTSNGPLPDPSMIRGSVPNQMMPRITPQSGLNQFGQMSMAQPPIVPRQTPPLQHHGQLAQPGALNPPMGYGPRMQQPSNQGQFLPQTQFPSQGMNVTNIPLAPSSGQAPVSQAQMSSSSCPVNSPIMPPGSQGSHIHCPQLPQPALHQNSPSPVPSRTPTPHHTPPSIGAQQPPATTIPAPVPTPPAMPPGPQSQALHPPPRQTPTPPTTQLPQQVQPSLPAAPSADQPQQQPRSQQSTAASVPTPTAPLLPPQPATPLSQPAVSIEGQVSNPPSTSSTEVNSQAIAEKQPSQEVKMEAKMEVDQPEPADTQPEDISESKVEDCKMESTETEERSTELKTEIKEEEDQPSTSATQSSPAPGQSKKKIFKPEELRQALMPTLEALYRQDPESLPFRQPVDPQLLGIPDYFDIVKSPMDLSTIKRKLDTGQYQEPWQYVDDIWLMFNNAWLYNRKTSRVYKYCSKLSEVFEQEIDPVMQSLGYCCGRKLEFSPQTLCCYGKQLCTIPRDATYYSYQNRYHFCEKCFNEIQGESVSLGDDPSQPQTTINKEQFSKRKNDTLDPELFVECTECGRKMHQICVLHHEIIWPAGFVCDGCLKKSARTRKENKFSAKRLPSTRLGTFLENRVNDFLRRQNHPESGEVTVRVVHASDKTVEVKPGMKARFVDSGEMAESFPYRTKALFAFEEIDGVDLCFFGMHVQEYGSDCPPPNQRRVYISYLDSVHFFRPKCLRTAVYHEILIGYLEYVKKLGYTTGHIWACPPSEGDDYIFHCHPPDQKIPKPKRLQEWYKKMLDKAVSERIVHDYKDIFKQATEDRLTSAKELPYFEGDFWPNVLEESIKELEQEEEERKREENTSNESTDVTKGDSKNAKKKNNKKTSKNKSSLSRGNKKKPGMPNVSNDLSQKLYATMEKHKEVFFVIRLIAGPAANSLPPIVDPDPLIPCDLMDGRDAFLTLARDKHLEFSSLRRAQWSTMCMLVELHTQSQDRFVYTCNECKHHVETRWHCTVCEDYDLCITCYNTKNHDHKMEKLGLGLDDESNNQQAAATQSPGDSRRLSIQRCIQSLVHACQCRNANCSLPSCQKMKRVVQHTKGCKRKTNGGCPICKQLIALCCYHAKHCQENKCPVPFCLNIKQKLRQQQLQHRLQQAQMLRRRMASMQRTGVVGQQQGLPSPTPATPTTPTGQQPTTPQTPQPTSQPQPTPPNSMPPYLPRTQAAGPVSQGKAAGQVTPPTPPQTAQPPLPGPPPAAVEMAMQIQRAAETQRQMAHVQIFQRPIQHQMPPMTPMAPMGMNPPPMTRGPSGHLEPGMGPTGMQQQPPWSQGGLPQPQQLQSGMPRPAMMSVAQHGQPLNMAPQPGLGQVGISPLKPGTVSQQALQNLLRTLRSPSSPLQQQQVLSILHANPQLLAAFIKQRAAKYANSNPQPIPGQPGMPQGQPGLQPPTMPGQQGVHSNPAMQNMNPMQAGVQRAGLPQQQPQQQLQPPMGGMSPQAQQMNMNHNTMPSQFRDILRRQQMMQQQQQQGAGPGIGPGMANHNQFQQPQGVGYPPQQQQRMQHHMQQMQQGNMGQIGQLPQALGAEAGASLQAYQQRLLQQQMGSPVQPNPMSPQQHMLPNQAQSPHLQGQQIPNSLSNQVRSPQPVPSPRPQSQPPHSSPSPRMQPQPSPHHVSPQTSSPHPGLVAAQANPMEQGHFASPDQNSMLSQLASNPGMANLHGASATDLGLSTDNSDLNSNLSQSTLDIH

No constants are given. Whether binding was seen depends on the method and setting. Binding seen in cells or lysates may run through a third protein. Some entries that bind do so weakly or less than the wild type.

This assay has as its target Y-box binding protein-1 (YB-1) (human (endogenous in BeWo)) (UniProt P67809). The experiment in a line: co-IP; in the nucleus of BeWo cells, control and caffeine-treated groups; protein incubated with 1 ug p-JNK or YB-1 antibody overnight, protein A/G agarose beads 4 h, western blotting. Background: Immunoblotting shows a protein as a band on a membrane.

Consider “E1A binding protein P300 (P300) (from UniProt Q09472 1-2414) (enzyme)”, for which the binding entry is given as “binds”.
